The record followed here is PMC4456614.

The exact form of at least one protein or probe is not confirmed.

For this data set, the target named is phosphorylated RacR (RacR-P), N-His (UniProt O68795). The experiment in a line: EMSA. The settings on record: 50 pmol RacR, 25 pmol RacScyto, 2 mM ATP; 20 mM Tris-HCl pH 7.4, 5 mM MgCl2, 100 mM KCl, 100 ug/ml BSA, 1 ug/ml poly(dI-dC), 10% glycerol; 30 min on ice; ~50 fmol DNA; 4% native Tris-glycine gel at 4 C; recombinant protein; protein details: N-His; probe letters rebuilt from the primers and the genome. (In general: A gel shift assay detects complexes by their altered migration in electrophoresis.)

As to “TTGAAATCGCAAATATAGCTAAATAACGCATTTTACTCCTTTTTAATGATATATAGAATTATTGTAACAAAACTAGGGGTATTGATAAATTTAAAAAATGATATATTTTTATAAAAATATTTAAAATTTTAAAATTTTGTATCAAATATTCTCATTTTATGCATGCTTT (double strand) [ggt promoter -104 fragment]”, the binding result is recorded as “binds”.
With “TTGAAATCGCAAATATAGCTAAATAACGCATTTTACTCCTTTTTAATGATATATAGAATTATTGTAACAAAACTAGGGGTATTGATAAATTTAAAAAATGATATATTTTTATAAAAATATTTAAAATTTTAAAATTTTGTATCAAATATTCTCATTTTATATAATTATTTTTTTATAAAATTACAAAAAGTAACTTTTAAATTTTATACCAAACTTGAGATTTTTTTGCTAAAATATTTAAAATTTATTGAAAGTGCAATGCATGCTTT (double strand) [ggt promoter -204 fragment]” the entry was “binds”.
